Earlier results, collected in US20140086890A1, “COMPOSITIONS AND METHODS FOR TREATING HYPERPROLIFERATIVE DISORDERS” (priority 2004, published 2014).
At least one compound was matched to its structure with a doubt left.

System: HDAC
Settings: cited from earlier work

In the case of `CCC(=O)CCCCC[C@@H]1NC(=O)[C@H]2CCCCN2C(=O)[C@H]([C@@H](C)CC)NC(=O)[C@H](Cc2cn(OC)c3ccccc23)NC1=O` [Apicidin], the “concentrations at which HDAC activity is inhibited” value is given as “nanomolar concentrations”.
